This note sets out measurements from the supplement of paper PMC6411743.

Sequences of proteins named here, by UniProt entry; tags and fusion partners are left off. A change or cut given only in a name is not applied to a line headed by its entry.
UniProt Q8N5F7: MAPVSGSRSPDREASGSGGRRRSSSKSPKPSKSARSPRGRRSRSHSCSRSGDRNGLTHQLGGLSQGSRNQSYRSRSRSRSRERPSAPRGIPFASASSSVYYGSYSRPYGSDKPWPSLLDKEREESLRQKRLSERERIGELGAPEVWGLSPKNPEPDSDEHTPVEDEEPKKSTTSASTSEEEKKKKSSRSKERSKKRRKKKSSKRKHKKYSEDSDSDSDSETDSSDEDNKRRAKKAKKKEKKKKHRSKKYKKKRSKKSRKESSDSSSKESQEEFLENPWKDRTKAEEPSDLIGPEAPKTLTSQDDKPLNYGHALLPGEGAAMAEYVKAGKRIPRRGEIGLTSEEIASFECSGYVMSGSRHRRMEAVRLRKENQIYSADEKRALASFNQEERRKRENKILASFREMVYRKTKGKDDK
UniProt Q8N6T3: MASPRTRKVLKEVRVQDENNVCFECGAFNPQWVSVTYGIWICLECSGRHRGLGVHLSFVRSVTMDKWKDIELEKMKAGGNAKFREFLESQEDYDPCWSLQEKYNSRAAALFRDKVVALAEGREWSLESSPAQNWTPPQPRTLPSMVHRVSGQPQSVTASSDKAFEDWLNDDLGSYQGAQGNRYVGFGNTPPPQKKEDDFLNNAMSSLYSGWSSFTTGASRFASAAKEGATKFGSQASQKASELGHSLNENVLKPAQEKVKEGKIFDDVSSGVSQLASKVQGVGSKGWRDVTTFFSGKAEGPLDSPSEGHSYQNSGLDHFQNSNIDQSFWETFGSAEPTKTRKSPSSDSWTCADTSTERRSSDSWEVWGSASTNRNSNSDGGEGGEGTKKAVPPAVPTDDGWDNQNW
UniProt Q8TCF1: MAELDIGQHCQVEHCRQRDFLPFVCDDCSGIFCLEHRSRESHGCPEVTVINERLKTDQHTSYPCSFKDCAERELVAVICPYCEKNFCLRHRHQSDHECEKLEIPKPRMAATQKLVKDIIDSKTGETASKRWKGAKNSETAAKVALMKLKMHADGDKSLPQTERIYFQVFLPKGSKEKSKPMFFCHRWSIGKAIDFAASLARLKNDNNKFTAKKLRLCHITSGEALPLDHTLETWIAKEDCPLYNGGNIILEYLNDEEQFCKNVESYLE
UniProt Q8ND56: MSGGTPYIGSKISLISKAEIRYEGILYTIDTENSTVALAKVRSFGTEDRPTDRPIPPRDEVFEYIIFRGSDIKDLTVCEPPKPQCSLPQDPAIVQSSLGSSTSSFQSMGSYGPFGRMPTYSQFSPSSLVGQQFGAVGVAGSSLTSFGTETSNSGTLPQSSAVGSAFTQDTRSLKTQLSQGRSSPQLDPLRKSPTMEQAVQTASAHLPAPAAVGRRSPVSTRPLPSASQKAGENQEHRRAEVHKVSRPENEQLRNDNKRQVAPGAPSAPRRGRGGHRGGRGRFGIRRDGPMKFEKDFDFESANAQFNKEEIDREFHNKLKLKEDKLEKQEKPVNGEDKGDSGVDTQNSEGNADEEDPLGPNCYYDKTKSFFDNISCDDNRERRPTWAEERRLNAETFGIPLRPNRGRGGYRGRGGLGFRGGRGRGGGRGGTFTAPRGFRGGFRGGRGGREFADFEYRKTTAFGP
UniProt Q8NBU5: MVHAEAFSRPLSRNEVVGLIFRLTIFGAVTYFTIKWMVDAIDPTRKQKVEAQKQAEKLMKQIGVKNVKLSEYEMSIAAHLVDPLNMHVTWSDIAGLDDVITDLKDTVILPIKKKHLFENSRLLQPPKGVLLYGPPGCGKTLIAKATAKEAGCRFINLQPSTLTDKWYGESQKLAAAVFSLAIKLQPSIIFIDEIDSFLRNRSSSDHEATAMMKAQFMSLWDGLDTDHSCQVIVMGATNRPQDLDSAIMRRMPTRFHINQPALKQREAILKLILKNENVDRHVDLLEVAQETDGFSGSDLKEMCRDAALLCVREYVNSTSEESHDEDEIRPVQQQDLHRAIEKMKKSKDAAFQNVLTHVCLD

± gives the standard deviation of the averaged measurements. The list shows a part of the results.

Compound in the assay: Nc1nc2c(ncn2[C@@H]2O[C@H](COP(=O)(O)OP(=O)(O)OP(=O)(O)O)[C@@H](O)[C@H]2O)c(=O)[nH]1 [guanosine triphosphate]
Put plainly: NP40-soluble protein abundance relative to vehicle (solubility fold change) (ratio); higher = more soluble protein in presence of GTP. The procedure:
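Solubility proteome profiling in Jurkat crude lysate. Lysate was treated with Mg-GTP (0.1-10 mM) for 10 min at room temperature and 3 min at 37 °C, then solubilised with 0.8% NP40 and benzonase, followed by ultracentrifugation. Proteins were quantified by TMT10 LC-MS/MS; the value is the NP40-soluble abundance relative to the NP40-processed vehicle, from 3 independent experiments.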

NKAP (UniProt Q8N5F7): the NP40-soluble protein abundance by setting is: (concentration: 0.1mM) 0.935 ± 0.015; (concentration: 0.5mM) 0.947 ± 0.038; (concentration: 1mM) 1.1 ± 0.014; (concentration: 2mM) 1.03 ± 0.07; (concentration: 4mM) 1.03 ± 0.022; (concentration: 6mM) 1.1 ± 0.012. Besides, the NP40-soluble protein abundance runs as follows: (concentration: 8mM) 1.1 ± 0.087; (concentration: 10mM) 1.24 ± 0.088.

As to ARFGAP1 (UniProt Q8N6T3), the NP40-soluble protein abundance turned out to be 0.914 ± 0.068 (concentration: 0.1mM); 0.887 ± 0.076 (concentration: 0.5mM); 0.914 ± 0.085 (concentration: 1mM); 0.872 ± 0.12 (concentration: 2mM); 0.887 ± 0.11 (concentration: 4mM); 0.865 ± 0.1 (concentration: 6mM). For the same target, the NP40-soluble protein abundance reads like this: (concentration: 8mM) 0.874 ± 0.091; (concentration: 10mM) 0.874 ± 0.096.

With UniProt Q8TCF1 and related entries, the NP40-soluble protein abundance is, setting by setting: (concentration: 0.1mM) 1.05 ± 0.13; (concentration: 0.5mM) 1.02 ± 0.088; (concentration: 1mM) 0.992 ± 0.11; (concentration: 2mM) 1.06 ± 0.15; (concentration: 4mM) 0.943 ± 0.11; (concentration: 6mM) 0.967 ± 0.08. In addition, the NP40-soluble protein abundance by setting is: (concentration: 8mM) 0.921 ± 0.038; (concentration: 10mM) 0.987 ± 0.17.

As for LSM14A (UniProt Q8ND56), the NP40-soluble protein abundance came to 0.953 ± 0.052 (concentration: 0.1mM); 0.934 ± 0.087 (concentration: 0.5mM); 0.98 ± 0.074 (concentration: 1mM); 0.947 ± 0.097 (concentration: 2mM); 0.952 ± 0.1 (concentration: 4mM); 0.954 ± 0.11 (concentration: 6mM). In addition, the NP40-soluble protein abundance reads like this: (concentration: 8mM) 0.982 ± 0.072; (concentration: 10mM) 0.995 ± 0.081.

In the case of UniProt Q8NBU5, the NP40-soluble protein abundance is, setting by setting: (concentration: 0.1mM) 0.983 ± 0.053; (concentration: 0.5mM) 0.98 ± 0.023; (concentration: 1mM) 0.924 ± 0.039; (concentration: 2mM) 0.917 ± 0.07; (concentration: 4mM) 0.858 ± 0.057; (concentration: 6mM) 0.897 ± 0.027. The NP40-soluble protein abundance runs as follows: (concentration: 8mM) 0.894 ± 0.074; (concentration: 10mM) 0.884 ± 0.073.
